# Reference: patent US6609014B1, “Use of PDT to inhibit intimal hyperplasia” (QLT Inc., priority 1999, dated 2003)
# Entries after “also recorded” stand apart in the source; their conditions may differ.
# Tested on: SMCs in the vein wall
# Experiment: alpha-smooth muscle actin immunostaining of AV fistula veins 48 hours after PDT
# Assay type: in vivo, Domestic swine
# Conditions: 40 minutes OR light
substance,measurement,setting,value
benzoporphyrin derivative monoacid ring A [BPD-MA],"Mean Percent of the Total Tissue Area Which was α-actin Positive, PDT, BLOCK 1",0.15 mg BPD-MA (0.15 mg/2 mL),1.94%
same,"Mean Percent of the Total Tissue Area Which was α-actin Positive, PDT, BLOCK 2",0.15 mg BPD-MA (0.15 mg/2 mL),3.06%
same,"Mean Percent of the Total Tissue Area Which was α-actin Positive, PDT, BLOCK 3",0.15 mg BPD-MA (0.15 mg/2 mL),2.81%
same,"Area of the veins stained positively for SMC, PDT-treated vs control",0.15 mg BPD-MA,No significant difference; also recorded: minor differences
